Measurements from PubChem BioAssay AID328 (DTP/NCI, 2004).
The list shows only some results of the screen, not a fair sample: it gathers tests that were run many times, whatever their T/C, doses with no T/C, and many T/C values between a quarter and a half above the control. Further doses and runs are listed elsewhere. T/C gives the treated animals as a percentage of the vehicle group. Some doses have a count of surviving animals in place of a T/C: the source holds a T/C of zero for them, seemingly a mark for toxic or unscored doses. Some survivor counts are full or nearly so, which does not show that the dose was tolerated: the source hardly ever lists a survival T/C far under the control, and the zero likely stands for such cases as well. Counts of survivors are from the toxicity check (mostly the fifth day) where no day follows; animals may have died later. Schedules are NCI's codes, read here as Q, the interval in days (D) or hours (H), X, the number of doses. Some entries were tested several times; their values stand side by side, smallest first. For survival time, this PubChem deposit counts one and a half times the control or more as active, and values a quarter to a half above the control carry no call in these data; other NCI protocols may use other cut-offs. Some T/C values carry the count of animals alive at the toxicity check (mostly the fifth day); without a count, all were alive then. Signs of the kind (2×) say how often a value occurs here. Some schedules carry Z or #; the key to these is not given.

Test system: BDF1 mice, P388 leukemia ip, median survival T/C
Test: NCI In Vivo Anticancer Drug Screen. Data for tumor model P388 Leukemia (intraperitoneal) in B6D2F1 (BDF1) mice
Conditions: T/C endpoint: median survival time, higher T/C = longer survival
How it was run: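 Transplantable tumour in mice; compound vs vehicle dosing; survival scored; ratio of treated to control reported.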

`COc1cccc2c1C(=O)c1c(O)c3c(c(O)c1C2=O)C[C@@](O)(C(=O)CO)C[C@@H]3OC1CC(N)C(O)C(C)O1` (some centres not stated) was tested, and the T/C (dose: 4.0 mg/kg/injection, schedule: Q04DX003 (ip), vehicle: saline, evaluated on day 11) was 94 % of control, the T/C (dose: 4.0 mg/kg/injection, schedule: Q04DX003 (ip), vehicle: saline, evaluated on day 60) was 229 and 571 % of control and the T/C (dose: 4.0 mg/kg/injection, schedule: Q04DX003 (ip), vehicle: water, evaluated on day 30) was 116, 129, 135 [4 of 6 alive], 135 [5 of 6 alive], 144, 152, 163 % of control [5 of 6 alive]. The T/C (dose: 4.0 mg/kg/injection, schedule: Q04DX003 (ip), vehicle: water, evaluated on day 32) was 139 % of control, the T/C (dose: 4.0 mg/kg/injection, schedule: Q04DX003 (ip), vehicle: water, evaluated on day 34) was 219 % of control [7 of 8 alive] and the T/C (dose: 4.0 mg/kg/injection, schedule: Q04DX003 (ip), vehicle: water, evaluated on day 38) was 94 % of control [7 of 8 alive]. The T/C (dose: 4.0 mg/kg/injection, schedule: Q04DX003 (ip), vehicle: water, evaluated on day 41) was 245 % of control, the T/C (dose: 4.0 mg/kg/injection, schedule: Q04DX003 (ip), vehicle: water, evaluated on day 46) was 209 % of control and the T/C (dose: 4.0 mg/kg/injection, schedule: Q04DX003 (ip), vehicle: water, evaluated on day 60) was 174, 181, 208, 224, 241, 277, 293, 330 % of control. The survivor count (dose: 4.0 mg/kg/injection, schedule: Q04DX003 (ip), vehicle: water) was 3 of 3, the T/C (dose: 4.0 mg/kg/injection, schedule: Q04DX004 (ip), vehicle: saline) was 146 % of control and the T/C (dose: 4.0 mg/kg/injection, schedule: Q04DX009 (ip), vehicle: water) was 132 % of control. The T/C (dose: 4.0 mg/kg/injection, schedule: Q## X003 (ip), vehicle: saline) was 141 % of control, the T/C (dose: 4.5 mg/kg/injection, schedule: Q04DX003 (sc), vehicle: saline) was 130 % of control and the T/C (dose: 4.8 mg/kg/injection, schedule: Q04DX003 (ip), vehicle: saline, evaluated on day 9) was 183 % of control. The T/C (dose: 4.8 mg/kg/injection, schedule: Q04DX003 (ip), vehicle: saline, evaluated on day 60) was 92, 115, 121, 126, 132, 200, 220, 238, 291 % of control, the T/C (dose: 5.0 mg/kg/injection, schedule: Q01DX001 (ip), vehicle: saline) was 149 % of control and the T/C (dose: 5.0 mg/kg/injection, schedule: Q01DX001 (sc), vehicle: saline) was 135 % of control. For the same molecule, the T/C (dose: 5.0 mg/kg/injection, schedule: Q04DX003 (ip), vehicle: saline, evaluated on day 5) was 100, 102, 111 (2×), 153, 163, 166, 167 (2×), 175, 176, 178, 180, 216, 344, 450, 520, 553 % of control (2×), the T/C (dose: 5.0 mg/kg/injection, schedule: Q04DX003 (ip), vehicle: saline, evaluated on day 8) was 158 % of control and the T/C (dose: 5.0 mg/kg/injection, schedule: Q04DX003 (ip), vehicle: saline, evaluated on day 45) was 194 % of control. For the same molecule, the T/C (dose: 5.0 mg/kg/injection, schedule: Q04DX003 (ip), vehicle: saline, evaluated on day 60) was 100, 102, 111 (2×), 153, 163, 166, 167 (2×), 175, 178, 180, 216, 305, 344, 450, 520, 553 (2×), 571 % of control, the T/C (dose: 5.0 mg/kg/injection, schedule: Q04DX003 (ip), vehicle: water, evaluated on day 7) was 157 and 198 % of control and the T/C (dose: 5.0 mg/kg/injection, schedule: Q04DX003 (ip), vehicle: water, evaluated on day 62) was 157 [7 of 8 alive] and 198 % of control. For the same molecule, the T/C (dose: 5.0 mg/kg/injection, schedule: Q04DX004 (ip), vehicle: saline) was 130 % of control, the survivor count (dose: 6.0 mg/kg/injection, schedule: Q01DX004 (ip), vehicle: saline with Tween-80) was 7 of 7 and the survivor count (dose: 6.0 mg/kg/injection, schedule: Q03HX008 (ip), vehicle: saline) was 3 of 10 and 7 of 10. The survivor count (dose: 6.0 mg/kg/injection, schedule: Q03HX008 (sc), vehicle: saline) was 5 of 10, the T/C (dose: 6.0 mg/kg/injection, schedule: Q04DX003 (sc), vehicle: saline) was 130 % of control and the T/C (dose: 6.6 mg/kg/injection, schedule: Q01DX001 (ip), vehicle: saline) was 147, 237, 247, 256, 260, 300, 481, 527, 538, 571 % of control. The T/C (dose: 6.67 mg/kg/injection, schedule: Q04DX003 (ip), vehicle: water) was 94, 104, 133 (2×), 149, 163, 209, 392 % of control, the T/C (dose: 6.7 mg/kg/injection, schedule: Q01DX001 (ip), vehicle: saline, evaluated on day 5) was 132 and 230 % of control and the T/C (dose: 6.7 mg/kg/injection, schedule: Q01DX001 (ip), vehicle: saline, evaluated on day 60) was 227, 292, 516, 532, 562 % of control. For the same molecule, the T/C (dose: 7.5 mg/kg/injection, schedule: Q01DX001 (ip), vehicle: saline) was 141 % of control, the T/C (dose: 7.5 mg/kg/injection, schedule: Q04DX003 (ip), vehicle: saline, evaluated on day 5) was 104, 107, 117, 120, 152, 159, 185 (2×), 189, 190, 194, 206, 207 (2×), 551, 586 % of control and the T/C (dose: 7.5 mg/kg/injection, schedule: Q04DX003 (ip), vehicle: saline, evaluated on day 8) was 183 % of control. For the same molecule, the T/C (dose: 7.5 mg/kg/injection, schedule: Q04DX003 (ip), vehicle: saline, evaluated on day 60) was 104, 107, 117, 120, 152, 159, 185 (2×), 189, 190, 194, 206, 207 (2×), 551, 586 % of control, the T/C (dose: 8.0 mg/kg/injection, schedule: Q01DX001 (ip), vehicle: saline, evaluated on day 1) was 250 % of control and the T/C (dose: 8.0 mg/kg/injection, schedule: Q01DX001 (ip), vehicle: saline, evaluated on day 5) was 242, 261, 295, 486 % of control. For the same molecule, the T/C (dose: 8.0 mg/kg/injection, schedule: Q01DX001 (ip), vehicle: saline, evaluated on day 6) was 250 % of control, the T/C (dose: 8.0 mg/kg/injection, schedule: Q01DX001 (ip), vehicle: saline, evaluated on day 8) was 207 % of control and the T/C (dose: 8.0 mg/kg/injection, schedule: Q01DX001 (ip), vehicle: saline, evaluated on day 11) was 97 % of control. The T/C (dose: 8.0 mg/kg/injection, schedule: Q01DX001 (ip), vehicle: saline, evaluated on day 90) was 295 % of control, the survivor count (dose: 8.0 mg/kg/injection, schedule: Q03HX008 (ip), vehicle: saline) was 0 of 10 and the survivor count (dose: 8.0 mg/kg/injection, schedule: Q03HX008 (sc), vehicle: saline) was 2 of 10. The T/C (dose: 8.0 mg/kg/injection, schedule: Q04DX003 (ip), vehicle: saline, evaluated on day 9) was 181 and 192 % of control, the T/C (dose: 8.0 mg/kg/injection, schedule: Q04DX003 (ip), vehicle: saline, evaluated on day 60) was 87, 89, 97, 110 % of control and the survivor count (dose: 8.0 mg/kg/injection, schedule: Q04DX003 (ip), vehicle: saline) was 8 of 8. For the same molecule, the T/C (dose: 8.0 mg/kg/injection, schedule: Q04DX003 (ip), vehicle: water, evaluated on day 30) was 155, 160, 171, 173, 179, 182, 198 % of control [5 of 6 alive], the T/C (dose: 8.0 mg/kg/injection, schedule: Q04DX003 (ip), vehicle: water, evaluated on day 34) was 114 % of control and the T/C (dose: 8.0 mg/kg/injection, schedule: Q04DX003 (ip), vehicle: water, evaluated on day 41) was 125 % of control. The T/C (dose: 8.0 mg/kg/injection, schedule: Q04DX003 (ip), vehicle: water, evaluated on day 60) was 86 % of control.
